Source: PMC10040811
Results are given in words; binding and its absence hold for the method and conditions named. Binding seen in cells or lysates may run through a third protein. A result given as binding can be weak or reduced; the word gives no strength. Where a sequence is shown, tags or fusion partners need not be part of it.

Molecular target: T1, GST-rat afadin NN (aa 2-500) (rat) (UniProt O35889)
T1 sequence: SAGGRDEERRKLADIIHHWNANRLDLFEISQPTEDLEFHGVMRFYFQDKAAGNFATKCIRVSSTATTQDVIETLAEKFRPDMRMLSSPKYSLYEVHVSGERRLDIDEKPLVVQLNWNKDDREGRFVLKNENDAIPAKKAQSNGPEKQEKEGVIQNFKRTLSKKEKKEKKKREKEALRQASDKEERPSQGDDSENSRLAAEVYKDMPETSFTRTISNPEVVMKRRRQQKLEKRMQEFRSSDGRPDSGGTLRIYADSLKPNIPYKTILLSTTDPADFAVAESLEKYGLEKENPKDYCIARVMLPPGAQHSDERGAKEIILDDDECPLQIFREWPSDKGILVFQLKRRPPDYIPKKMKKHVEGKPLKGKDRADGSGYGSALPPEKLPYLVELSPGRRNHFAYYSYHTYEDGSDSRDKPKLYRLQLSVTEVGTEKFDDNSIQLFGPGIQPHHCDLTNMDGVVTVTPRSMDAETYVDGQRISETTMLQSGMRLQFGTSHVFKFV
Assay: pull-down; GST-afadin-NN from E. coli held on glutathione-Sepharose 4B, incubated 3 h with lysate of HEK293 cells expressing V5-MAGUIN-2 in 0.25% DDM in buffer A; blot with the V5 mAb; only the target purified

How did the binding turn out when V5-tagged full-length MAGUIN-2 (mouse) was run?
The binding was “binds”.
